Experimental data: article PMC10889563, “The Multienzyme Complex Nature of Dehydroepiandrosterone Sulfate Biosynthesis” (International Journal of Molecular Sciences, 2024)

Protein sequences, listed by entry. Tags and fused reporters are not part of them.
UniProt P52847: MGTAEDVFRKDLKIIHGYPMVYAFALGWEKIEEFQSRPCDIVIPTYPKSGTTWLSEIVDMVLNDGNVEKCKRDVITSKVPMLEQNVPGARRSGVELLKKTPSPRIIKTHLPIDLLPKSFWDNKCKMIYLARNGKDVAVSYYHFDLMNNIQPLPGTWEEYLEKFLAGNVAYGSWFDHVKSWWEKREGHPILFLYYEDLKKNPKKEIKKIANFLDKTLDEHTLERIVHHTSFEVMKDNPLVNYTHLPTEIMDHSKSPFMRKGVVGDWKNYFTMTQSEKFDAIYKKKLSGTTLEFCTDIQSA
UniProt P30839: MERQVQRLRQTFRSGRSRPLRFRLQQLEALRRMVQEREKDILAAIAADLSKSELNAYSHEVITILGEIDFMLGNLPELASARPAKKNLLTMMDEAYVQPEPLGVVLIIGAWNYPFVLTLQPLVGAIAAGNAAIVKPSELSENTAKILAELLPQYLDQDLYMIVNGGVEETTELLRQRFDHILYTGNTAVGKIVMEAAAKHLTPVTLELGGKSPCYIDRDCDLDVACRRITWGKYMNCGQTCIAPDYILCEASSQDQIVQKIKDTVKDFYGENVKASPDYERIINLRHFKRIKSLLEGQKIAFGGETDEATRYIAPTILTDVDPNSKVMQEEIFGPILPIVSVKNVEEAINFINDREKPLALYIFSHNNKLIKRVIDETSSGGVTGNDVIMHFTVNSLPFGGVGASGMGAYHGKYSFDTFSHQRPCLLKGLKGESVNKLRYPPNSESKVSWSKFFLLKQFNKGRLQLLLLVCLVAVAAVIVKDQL
UniProt P17988: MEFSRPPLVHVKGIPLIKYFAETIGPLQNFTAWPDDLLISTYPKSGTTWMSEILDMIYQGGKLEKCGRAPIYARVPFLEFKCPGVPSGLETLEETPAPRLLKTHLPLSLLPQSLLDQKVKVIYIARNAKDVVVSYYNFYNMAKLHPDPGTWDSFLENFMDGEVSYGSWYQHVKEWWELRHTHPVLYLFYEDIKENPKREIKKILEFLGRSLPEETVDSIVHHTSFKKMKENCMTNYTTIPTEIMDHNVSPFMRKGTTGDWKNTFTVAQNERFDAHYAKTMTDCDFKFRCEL
UniProt P50237: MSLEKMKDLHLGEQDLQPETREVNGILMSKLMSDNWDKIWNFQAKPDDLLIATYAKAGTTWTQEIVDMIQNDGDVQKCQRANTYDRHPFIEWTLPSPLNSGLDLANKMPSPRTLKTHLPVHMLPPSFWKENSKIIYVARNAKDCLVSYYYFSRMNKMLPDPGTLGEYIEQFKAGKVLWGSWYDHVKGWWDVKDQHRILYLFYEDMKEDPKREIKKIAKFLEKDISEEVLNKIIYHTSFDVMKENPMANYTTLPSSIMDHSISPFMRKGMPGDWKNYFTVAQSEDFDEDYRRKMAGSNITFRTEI

T1: sulfotransferase SULT1E1 (human, UniProt P49888 1-294)
T1 construct: cytosolic sulfotransferase SULT1E1, human, recombinant; The oligomeric state in the assay is not known to the authors; source: E. coli DH5α, purified (Ni-NTA agarose, hydroxyapatite)
T1 sequence (looked up): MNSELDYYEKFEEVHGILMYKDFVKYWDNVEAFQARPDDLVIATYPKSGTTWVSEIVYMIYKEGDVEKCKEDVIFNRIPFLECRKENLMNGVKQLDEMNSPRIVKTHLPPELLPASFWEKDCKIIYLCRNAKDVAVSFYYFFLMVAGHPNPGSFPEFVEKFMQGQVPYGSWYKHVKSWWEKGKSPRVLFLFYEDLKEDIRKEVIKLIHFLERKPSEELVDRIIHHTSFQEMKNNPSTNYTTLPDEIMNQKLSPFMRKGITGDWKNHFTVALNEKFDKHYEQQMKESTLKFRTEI


Target: T1, sulfotransferase SULT1E1
Assay: affinity purification with mass spectrometry; recombinant SULT1E1 or SULT2A1 covalently immobilised on CNBr-Sepharose 4B; rat liver tissue lysate; HBS-P buffer (10 mM HEPES, 150 mM NaCl, 0.005% Tween-20, pH 7.4), PAPS-free; elution with 4% formic acid; LC-MS/MS; sorbent without protein as control; only the target purified

| binding | Molecule |
| --- | --- |
| binds | Sulfotransferase family cytosolic 1B member 1 (from UniProt P52847 1-299) |
| binds | Fatty aldehyde dehydrogenase (from UniProt P30839 1-484) |
| binds | Argininosuccinate synthase (protein, UniProt P09034 1-412) MSSKGSVVLAYSGGLDTSCILVWLKEQGYDVIAYLANIGQKEDFEEARKKALKLGAKKVFIEDVSKEFVEEFIWPAVQSSALYEDRYLLGTSLARPCIARKQVEIAQREGAKYVSHGATGKGNDQVRFELTCYSLAPQIKVIAPWRMPEFYNRFKGRNDLMEYAKQHGIPIPVTPKSPWSMDENLMHISYEAGILENPKNQAPPGLYTKTQDPAKAPNTPDVLEIEFKKGVPVKVTNVKDGTTHSTSLDLFMYLNEVAGKHGVGRIDIVENRFIGMKSRGIYETPAGTILYHAHLDIEAFTMDREVRKIKQGLGLKFAELVYTGFWHSPECEFVRHCIDKSQERVEGKVQVSVFKGQVYILGRESPLSLYNEELVSMNVQGDYEPIDATGFININSLRLKEYHRLQSKVTAK |
| binds | Fructose-bisphosphate aldolase B (protein, UniProt P00884 1-364) MAHRFPALTSEQKKELSEIAQRIVANGKGILAADESVGTMGNRLQRIKVENTEENRRQFRELLFSVDNSISQSIGGVILFHETLYQKDSQGKLFRNILKEKGIVVGIKLDQGGAPLAGTNKETTIQGLDGLSERCAQYKKDGVDFGKWRAVLRISDQCPSSLAIQENANALARYASICQQNGLVPIVEPEVLPDGDHDLEHCQYVSEKVLAAVYKALNDHHVYLEGTLLKPNMLTAGHACTKKYTPEQVAMATVTALHRTVPAAVPSICFLSGGMSEEDATLNLNAIYRCPLPRPWKLSFSYGRALQASALAAWGGKAANKKATQEAFMKRAVANCQAAQGQYVHTGSSGAASTQSLFTASYTY |
| binds | Sarcosine dehydrogenase, mitochondrial (protein, UniProt Q64380 23-919) LGLQPLAREARPTTEKSVPYQCTLKEEAQGASVVPQGPSQPLPSTANVVVIGGGSLGCQTLYHLAKLGVGGVVLLERERLTSGTTWHTAGLLWQLRPSDVEVELLAHTRQVVSHDLEEETGLHTGWIQNGGLFIASNQQRLDEYKRLMSLGKAYGIESHVLSPAETKDLYPLMNVDDLYGTLYVPRDGTMDPAGTCTTLTRAAVARGAQVIENCAVTGIRVRTDDFGVRRVTAVETQHGSIQTPCVVNCAGVWASSVGRMAGVKVPLVAMHHAYVVTERIEGIQNMPNVRDHDASVYLRLQGDALSVGGYEANPIFWDEVSDKFAFGLFDLDWDVFTQHIEGAINRVPVLEKTGIKSTVCGPESFTPDHKPLMGEAPELRGFFLGCGFNSAGMMLGGGCGQELAHWIVHGRPEKDMYSYDIRRFHHSLTDHPRWIRERSHESYAKNYSVVFPHDEPLAGRNMRRDPLHEELLGQGCVFQERQGWERPGWFNPQETAQVLDYDYYGAYGHQAHKDYAYSRLLGDEYTFDFPPHHCVIQKECLACRTAAAVFNMSYFGKFYLLGADARKAPDWLFSADVNRPPGSTVYTCMLNQRGGTESDLTVSCLAPGAQASPLAPAFEGDGYYLAVGGAVAQHNWSHINTVLQDQEFRCQLMDCSEDLGMLSIQGPASRDILQDVLDADLSNEAFPFSTHQLVRAAGHLVRAIRLSFVGELGWELHVPQASCLPVYRAVMAAGAKHGLVNAGYRAIDSLSIEKGYRHWHADLRSDDSPLEAGLAFTCKLKTSVPFLGREALEKQRATGLRRRLVCLTVEEEVPMFGLEAIWRNGQVVGHVRRADFGFTVNKTIAYGYIRDPSGGPVSLDFVKNGDYALERMGVTYAAQVHLKSPFDPDNKRVKGIY |

More lines, now with the values behind:

| Molecule | binding |
| --- | --- |
| Sulfotransferase 1A1 (from UniProt P17988 1-291) | binds |
| Sulfotransferase 1C1 (from UniProt P50237 1-304) | binds |
| D-beta-hydroxybutyrate dehydrogenase, mitochondrial (protein, UniProt P29147 47-343) TSQADAASGKAVLVTGCDSGFGFSLAKHLHSKGFLVFAGCLLKDKGDAGVRELDSLKSDRLRTIQLNVCNSEEVEKAVETVRSGLKDPEKGMWGLVNNAGISTFGEVEFTSMETYKEVAEVNLWGTVRTTKSFLPLLRRAKGRVVNISSMLGRMANPARSPYCITKFGVEAFSDCLRYEMHPLGVKVSVVEPGNFIAATSLYSPERIQAIAKKMWDELPEVVRKDYGKKYFDEKIAKMETYCNSGSTDTSSVINAVTHALTAATPYTRYHPMDYYWWLRMQVMTHFPGAISDKIYIH | binds |
| ATP-dependent 6-phosphofructokinase, liver type (protein, UniProt P30835 1-780) MATVDLEKLRMSGAGKAIGVLTSGGDAQGMNAAVRAVTRMGIYVGAKVFLIYEGYEGLVEGGENIKPANWLSVSNIIQLGGTIIGSARCKAFTTREGRLAAAYNLLQHGITNLCVIGGDGSLTGANIFRNEWGSLLEELVKEGKISESTAQNYAHLSIAGLVGSIDNDFCGTDMTIGTDSALHRIMEVIDAITTTAQSHQRTFVLEVMGRHCGYLALVSALASGADWLFIPEAPPEDGWENFMCERLGETRSRGSRLNIIIIAEGAIDRHGKPISSSYVKDLVVQRLGFDTRVTVLGHVQRGGTPSAFDRVLSSKMGMEAVMALLEATPDTPACVVSLSGNQSVRLPLMECVQVTKDVQKAMDEKRFDEAIQLRGRSFENNWKIYKLLAHQKVSKEKSNFSLAILNVGAPAAGMNAAVRSAVRTGISEGHTVYVVHDGFEGLAKGQVQEVGWHDVAGWLGRGGSMLGTKRTLPKPHLEAIVENLRTYNIHALLVIGGFEAYEGVLQLVEARGRYEELCIVMCVIPATISNNVPGTDFSLGSDTAVNAAMESCDRIKQSASGTKRRVFIVETMGGYCGYLATVTGIAVGADAAYVFEDPFNIHDLKANVEHMTEKMKTDIQRGLVLRNEKCHEHYTTEFLYNLYSSEGRGVFDCRTNVLGHLQQGGAPTPFDRNYGTKLGVKAMLWMSEKLRDVYRKGRVFANAPDSACVIGLRKKVVAFSSVTELKKETDFEHRMPREQWWLNLRLMLKMLAHYRISMADYVSGELEHVTRRTLSIDKGF | binds |

No constants are given. Whether binding was seen depends on the method and setting. Binding seen in cells or lysates may run through a third protein. These calls come from enrichment with a bait or labelling near it, and not all partners need be listed.
